33 targets from the supplement of paper PMC12819154, “High-throughput peptide-centric local stability assay extends protein–ligand identification to membrane proteins, tissues and bacteria” (Nature Structural & Molecular Biology, 2025) can be followed below.

Amino acid sequences for entries named in this document (tags omitted). A change or cut given only in a name is not applied to a line headed by its entry.
UniProt E9Q4N7, whole entry: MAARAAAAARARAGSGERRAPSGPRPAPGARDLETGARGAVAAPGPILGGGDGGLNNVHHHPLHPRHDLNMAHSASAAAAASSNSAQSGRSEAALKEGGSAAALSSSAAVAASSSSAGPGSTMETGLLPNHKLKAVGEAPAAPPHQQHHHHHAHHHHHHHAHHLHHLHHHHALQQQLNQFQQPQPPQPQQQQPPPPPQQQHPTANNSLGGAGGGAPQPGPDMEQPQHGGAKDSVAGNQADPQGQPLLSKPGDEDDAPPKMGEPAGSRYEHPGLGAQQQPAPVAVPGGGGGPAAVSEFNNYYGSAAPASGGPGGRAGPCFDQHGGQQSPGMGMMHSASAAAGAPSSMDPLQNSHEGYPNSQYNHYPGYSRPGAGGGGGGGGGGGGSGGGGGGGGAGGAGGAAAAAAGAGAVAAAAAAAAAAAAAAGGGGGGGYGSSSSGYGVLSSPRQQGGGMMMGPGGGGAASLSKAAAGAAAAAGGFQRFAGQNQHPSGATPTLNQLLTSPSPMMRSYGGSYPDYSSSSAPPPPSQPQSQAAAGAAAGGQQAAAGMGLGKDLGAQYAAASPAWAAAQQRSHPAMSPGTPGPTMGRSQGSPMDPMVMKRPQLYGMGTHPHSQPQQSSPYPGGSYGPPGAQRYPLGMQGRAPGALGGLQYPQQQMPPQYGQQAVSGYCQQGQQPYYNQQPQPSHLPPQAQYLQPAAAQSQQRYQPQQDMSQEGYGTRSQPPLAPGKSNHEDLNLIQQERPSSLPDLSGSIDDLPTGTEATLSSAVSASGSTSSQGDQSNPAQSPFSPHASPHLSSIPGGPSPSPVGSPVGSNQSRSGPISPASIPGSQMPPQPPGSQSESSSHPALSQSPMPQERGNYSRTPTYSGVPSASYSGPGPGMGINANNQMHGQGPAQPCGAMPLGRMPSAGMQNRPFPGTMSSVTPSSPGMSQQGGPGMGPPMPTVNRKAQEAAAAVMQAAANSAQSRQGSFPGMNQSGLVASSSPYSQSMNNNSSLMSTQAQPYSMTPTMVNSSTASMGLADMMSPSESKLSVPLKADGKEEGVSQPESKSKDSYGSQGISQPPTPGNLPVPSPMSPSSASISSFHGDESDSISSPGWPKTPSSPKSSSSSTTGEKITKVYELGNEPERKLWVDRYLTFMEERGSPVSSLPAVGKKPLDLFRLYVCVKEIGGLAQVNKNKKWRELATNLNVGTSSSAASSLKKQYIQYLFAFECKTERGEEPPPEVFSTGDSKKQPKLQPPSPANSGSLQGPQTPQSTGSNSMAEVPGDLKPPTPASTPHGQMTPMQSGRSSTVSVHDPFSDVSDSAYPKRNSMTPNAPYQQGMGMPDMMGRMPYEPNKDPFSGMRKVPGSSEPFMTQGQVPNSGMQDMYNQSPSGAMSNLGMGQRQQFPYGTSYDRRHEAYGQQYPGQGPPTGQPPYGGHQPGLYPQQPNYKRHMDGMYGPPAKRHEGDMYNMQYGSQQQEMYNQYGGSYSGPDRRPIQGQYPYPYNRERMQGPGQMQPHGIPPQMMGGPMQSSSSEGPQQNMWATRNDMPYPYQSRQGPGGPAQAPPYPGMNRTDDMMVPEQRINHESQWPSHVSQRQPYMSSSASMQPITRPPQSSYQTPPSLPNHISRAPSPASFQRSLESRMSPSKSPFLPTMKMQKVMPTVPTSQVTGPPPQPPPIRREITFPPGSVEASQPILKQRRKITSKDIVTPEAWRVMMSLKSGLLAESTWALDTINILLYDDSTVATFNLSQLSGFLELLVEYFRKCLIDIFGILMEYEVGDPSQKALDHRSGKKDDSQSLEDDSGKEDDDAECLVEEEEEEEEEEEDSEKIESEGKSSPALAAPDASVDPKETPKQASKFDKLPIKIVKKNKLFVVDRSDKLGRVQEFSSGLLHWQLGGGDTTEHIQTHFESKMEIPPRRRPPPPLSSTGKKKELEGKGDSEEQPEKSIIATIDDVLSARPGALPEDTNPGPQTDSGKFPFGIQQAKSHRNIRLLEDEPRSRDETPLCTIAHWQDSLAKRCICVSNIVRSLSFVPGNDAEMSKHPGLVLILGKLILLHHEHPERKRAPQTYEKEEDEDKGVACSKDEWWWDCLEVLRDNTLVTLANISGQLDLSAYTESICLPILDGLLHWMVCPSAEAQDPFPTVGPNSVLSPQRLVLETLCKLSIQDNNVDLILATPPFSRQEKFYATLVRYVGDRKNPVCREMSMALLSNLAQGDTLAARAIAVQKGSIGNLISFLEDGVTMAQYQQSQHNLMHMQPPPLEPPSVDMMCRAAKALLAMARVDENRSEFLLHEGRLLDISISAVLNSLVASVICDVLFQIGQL
UniProt A2AR02: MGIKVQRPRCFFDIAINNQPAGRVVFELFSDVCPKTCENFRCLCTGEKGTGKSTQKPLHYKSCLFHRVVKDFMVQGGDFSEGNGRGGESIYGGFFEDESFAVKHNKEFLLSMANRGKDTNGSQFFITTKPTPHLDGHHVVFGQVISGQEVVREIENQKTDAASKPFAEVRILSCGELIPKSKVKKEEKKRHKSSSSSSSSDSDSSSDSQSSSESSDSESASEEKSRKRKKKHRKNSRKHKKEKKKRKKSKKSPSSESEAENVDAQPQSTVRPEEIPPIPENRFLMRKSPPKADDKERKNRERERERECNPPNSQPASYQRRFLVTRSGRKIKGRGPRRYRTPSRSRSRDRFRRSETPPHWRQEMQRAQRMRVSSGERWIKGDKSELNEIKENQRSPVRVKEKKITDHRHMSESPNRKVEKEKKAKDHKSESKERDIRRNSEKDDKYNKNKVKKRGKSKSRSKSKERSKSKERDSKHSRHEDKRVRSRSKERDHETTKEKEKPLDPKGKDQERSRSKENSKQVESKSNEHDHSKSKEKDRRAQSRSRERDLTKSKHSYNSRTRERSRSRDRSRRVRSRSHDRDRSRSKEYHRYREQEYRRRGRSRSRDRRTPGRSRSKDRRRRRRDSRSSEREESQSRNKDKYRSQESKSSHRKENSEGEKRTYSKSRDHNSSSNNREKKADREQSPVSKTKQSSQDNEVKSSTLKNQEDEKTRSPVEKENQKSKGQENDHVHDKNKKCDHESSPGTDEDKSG
UniProt B8JK39: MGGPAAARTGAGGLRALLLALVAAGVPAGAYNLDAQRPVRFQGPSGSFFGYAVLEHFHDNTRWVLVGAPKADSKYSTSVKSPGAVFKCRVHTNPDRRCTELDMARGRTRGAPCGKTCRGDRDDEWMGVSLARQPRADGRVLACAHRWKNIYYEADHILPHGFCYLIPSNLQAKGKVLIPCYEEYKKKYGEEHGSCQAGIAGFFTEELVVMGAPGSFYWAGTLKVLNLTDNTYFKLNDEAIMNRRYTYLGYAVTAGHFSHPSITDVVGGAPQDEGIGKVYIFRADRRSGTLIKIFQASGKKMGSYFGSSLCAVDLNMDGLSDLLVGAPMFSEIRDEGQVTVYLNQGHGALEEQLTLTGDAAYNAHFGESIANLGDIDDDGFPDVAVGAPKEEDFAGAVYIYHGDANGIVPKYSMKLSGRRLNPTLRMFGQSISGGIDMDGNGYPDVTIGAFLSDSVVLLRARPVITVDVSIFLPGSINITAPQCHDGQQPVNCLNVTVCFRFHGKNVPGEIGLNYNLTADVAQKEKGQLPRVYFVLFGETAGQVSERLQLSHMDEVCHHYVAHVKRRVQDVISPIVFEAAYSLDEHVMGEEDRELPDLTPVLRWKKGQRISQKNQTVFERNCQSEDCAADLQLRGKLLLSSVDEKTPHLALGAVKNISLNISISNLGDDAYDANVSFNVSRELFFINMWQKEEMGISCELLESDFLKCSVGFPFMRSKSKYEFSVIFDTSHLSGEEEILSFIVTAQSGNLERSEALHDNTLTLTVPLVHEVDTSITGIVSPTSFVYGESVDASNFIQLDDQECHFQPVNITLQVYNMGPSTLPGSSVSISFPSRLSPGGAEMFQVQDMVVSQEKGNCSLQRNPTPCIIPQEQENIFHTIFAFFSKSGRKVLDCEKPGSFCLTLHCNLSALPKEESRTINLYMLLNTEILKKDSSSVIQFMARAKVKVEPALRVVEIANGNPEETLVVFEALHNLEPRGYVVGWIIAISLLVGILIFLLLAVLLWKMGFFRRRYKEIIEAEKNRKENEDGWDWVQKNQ
UniProt A2AMZ4: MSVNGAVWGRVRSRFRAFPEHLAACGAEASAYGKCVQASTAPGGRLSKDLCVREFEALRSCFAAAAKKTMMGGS
UniProt A2ADY9: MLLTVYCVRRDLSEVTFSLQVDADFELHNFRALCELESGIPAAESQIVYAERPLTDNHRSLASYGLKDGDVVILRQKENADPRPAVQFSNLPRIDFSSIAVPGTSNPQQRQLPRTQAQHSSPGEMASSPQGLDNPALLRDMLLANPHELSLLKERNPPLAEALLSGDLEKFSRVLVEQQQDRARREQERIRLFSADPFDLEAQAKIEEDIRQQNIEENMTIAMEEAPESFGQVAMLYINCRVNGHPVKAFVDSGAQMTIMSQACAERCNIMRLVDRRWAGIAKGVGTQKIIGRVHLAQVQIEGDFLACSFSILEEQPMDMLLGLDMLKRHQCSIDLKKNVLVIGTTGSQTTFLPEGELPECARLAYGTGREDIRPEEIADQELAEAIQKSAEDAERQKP
UniProt A2AJB2: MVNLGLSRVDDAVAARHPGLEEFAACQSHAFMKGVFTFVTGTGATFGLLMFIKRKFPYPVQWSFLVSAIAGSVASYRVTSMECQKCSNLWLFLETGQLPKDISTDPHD
UniProt B2RXS4: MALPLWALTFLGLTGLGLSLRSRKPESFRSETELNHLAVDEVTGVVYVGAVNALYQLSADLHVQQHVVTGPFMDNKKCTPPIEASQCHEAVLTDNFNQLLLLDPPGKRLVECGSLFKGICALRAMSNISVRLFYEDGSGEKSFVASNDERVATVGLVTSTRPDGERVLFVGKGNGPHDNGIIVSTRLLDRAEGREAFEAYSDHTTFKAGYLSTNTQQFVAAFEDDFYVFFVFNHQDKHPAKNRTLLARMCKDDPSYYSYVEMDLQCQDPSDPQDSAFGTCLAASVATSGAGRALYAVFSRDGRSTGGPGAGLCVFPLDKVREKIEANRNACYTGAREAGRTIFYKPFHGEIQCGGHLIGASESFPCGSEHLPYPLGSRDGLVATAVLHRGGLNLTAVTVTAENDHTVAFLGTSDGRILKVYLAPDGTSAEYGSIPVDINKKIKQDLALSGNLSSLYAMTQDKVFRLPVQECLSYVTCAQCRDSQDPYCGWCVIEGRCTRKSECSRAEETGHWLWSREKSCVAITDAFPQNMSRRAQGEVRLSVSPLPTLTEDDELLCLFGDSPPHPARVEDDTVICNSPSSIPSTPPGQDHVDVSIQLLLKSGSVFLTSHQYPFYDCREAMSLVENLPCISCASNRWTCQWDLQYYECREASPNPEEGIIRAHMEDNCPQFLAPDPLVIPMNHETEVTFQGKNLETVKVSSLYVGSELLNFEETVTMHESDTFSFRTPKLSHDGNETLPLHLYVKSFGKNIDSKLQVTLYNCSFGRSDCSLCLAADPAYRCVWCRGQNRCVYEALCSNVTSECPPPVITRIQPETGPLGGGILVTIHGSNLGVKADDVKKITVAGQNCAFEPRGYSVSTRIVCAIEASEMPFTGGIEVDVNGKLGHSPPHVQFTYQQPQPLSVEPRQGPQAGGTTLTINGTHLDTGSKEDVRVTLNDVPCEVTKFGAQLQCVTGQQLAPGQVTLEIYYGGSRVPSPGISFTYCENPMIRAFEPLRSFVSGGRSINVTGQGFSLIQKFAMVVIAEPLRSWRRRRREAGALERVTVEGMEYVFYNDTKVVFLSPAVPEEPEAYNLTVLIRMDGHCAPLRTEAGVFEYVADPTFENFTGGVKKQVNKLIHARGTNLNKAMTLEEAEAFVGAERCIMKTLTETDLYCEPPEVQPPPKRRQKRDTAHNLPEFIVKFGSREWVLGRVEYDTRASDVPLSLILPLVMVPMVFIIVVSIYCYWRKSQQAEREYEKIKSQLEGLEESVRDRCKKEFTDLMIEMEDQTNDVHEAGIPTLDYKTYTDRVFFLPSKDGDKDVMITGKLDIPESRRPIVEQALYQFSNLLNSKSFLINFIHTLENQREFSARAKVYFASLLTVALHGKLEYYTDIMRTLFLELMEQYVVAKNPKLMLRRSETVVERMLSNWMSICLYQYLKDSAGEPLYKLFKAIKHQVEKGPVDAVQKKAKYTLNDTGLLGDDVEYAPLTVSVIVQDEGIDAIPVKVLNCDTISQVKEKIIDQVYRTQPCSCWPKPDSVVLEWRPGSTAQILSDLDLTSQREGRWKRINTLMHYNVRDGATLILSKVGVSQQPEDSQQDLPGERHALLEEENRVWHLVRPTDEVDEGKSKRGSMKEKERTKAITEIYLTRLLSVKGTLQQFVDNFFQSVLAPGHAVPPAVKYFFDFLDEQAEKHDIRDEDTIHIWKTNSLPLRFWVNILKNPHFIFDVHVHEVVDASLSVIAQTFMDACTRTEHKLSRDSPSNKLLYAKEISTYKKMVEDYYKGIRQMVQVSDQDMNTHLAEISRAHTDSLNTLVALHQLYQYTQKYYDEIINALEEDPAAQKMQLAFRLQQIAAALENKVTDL

Compound in the experiment: CN[C@@H]1C[C@H]2O[C@@](C)([C@@H]1OC)n1c3ccccc3c3c4c(c5c6ccccc6n2c5c31)C(=O)NC4 [staurosporine]
Nature of the experiment: log2 fold change of pooled soluble protein (PISA), ligand vs vehicle (log2 ratio); higher = more thermally stabilized. To be noted: ligand concentration: 20 uM; assay format: PISA pool 52.9/55.5/58.6 C.

The list shows a part of the results. Most entries show no effect beyond the scatter of the controls.

Take UniProt E9Q4N7: the “log2 fold change of pooled soluble protein” value (shortened to “log2 fold change”) was 0.0448.

UniProt A2RSJ4: the “log2 fold change” value came out at 0.0491.

Take UniProt A6X8Z5: the “log2 fold change” value is -0.107.

As for UniProt A6X919, the “log2 fold change” value is -0.173.

Take UniProt A1L3P4: the “log2 fold change” value was -0.171.

In the case of UniProt B1AZI6, the “log2 fold change” value is -0.0477.

For the target UniProt E9Q555, the “log2 fold change” value was -0.106.

Take UniProt A2A6A1: the “log2 fold change” value was -0.157.

Take UniProt E9Q3C1: the “log2 fold change” value was -0.0436.

With UniProt A2AQ25, the “log2 fold change” value is 0.103.

Turning to UniProt A2AWR3, the “log2 fold change” value is 0.084.

For the target UniProt A6H6A9, the “log2 fold change” value was -0.000584.

For the target UniProt A2AJL3, the “log2 fold change” value turned out to be 0.148.

For UniProt F6XLV1, the “log2 fold change” value came out at 0.0844.

With UniProt B2RQC6, the “log2 fold change” value turned out to be 0.0445.

Turning to UniProt E9Q7G0, the “log2 fold change” value was -0.135.

As for UniProt A2AR02, the “log2 fold change” value is -0.429.

In the case of UniProt E9QAT4, the “log2 fold change” value is -0.134.

As to UniProt A2AJT4, the “log2 fold change” value was -0.154.

As to UniProt A3KMP2, the “log2 fold change” value was 0.0438.

Regarding UniProt B8JK39, the “log2 fold change” value came to 0.00873.

Turning to UniProt A2AMZ4, the “log2 fold change” value is -0.0962.

With UniProt A6H8H2, the “log2 fold change” value worked out at 0.0343.

For C0HKD8;C0HKD9, the “log2 fold change” value is -0.0246.

With UniProt F6ZDS4, the “log2 fold change” value is -0.03.

For the target UniProt B8ZXI1, the “log2 fold change” value was -0.033.

Take UniProt A2ADY9: the “log2 fold change” value is -0.0193.

With UniProt A2AGT5, the “log2 fold change” value was -0.313.

Turning to UniProt A2AJB2, the “log2 fold change” value is -0.0262.

Take UniProt B2RXS4: the “log2 fold change” value was -0.0736.

On to UniProt E9PVA8, for which the “log2 fold change” value was -0.338.

UniProt A2AHC3: the “log2 fold change” value amounted to 0.0984.

On to UniProt A6H5X4, for which the “log2 fold change” value was -0.0375.
